# In paper PMC5996148:
# Where “and” joins values, the source holds several entries; their conditions need not be identical. Equal values may be shown once. This is one part of the list.
# Assays:
# Assay in all cases: protein microarray (ProtoArray v5.0), streptavidin-Alexa Fluor 647
# Settings in all cases: 3'-biotin; 20 mM Tris (pH 7.5), 5 mM MgCl2, 100 mM KCl, 0.1% Tween-20, A/T-rich and random oligonucleotide blockers; temperature not stated; high values mean tight binding
# [1] = tested on: 1-aminocyclopropane-1-carboxylate synthase-like protein 1 (human)
# [2] = tested on: 14-3-3 protein sigma (human)
# [3] = tested on: 2-oxoglutarate and iron-dependent oxygenase domain-containing protein 2 (human)
# [4] = tested on: 26S protease regulatory subunit S10B (human)
# [5] = tested on: 26S proteasome non-ATPase regulatory subunit 7 (human)
# [6] = tested on: 3 beta-hydroxysteroid dehydrogenase type 7 (human)
# [7] = tested on: 3-hydroxyanthranilate 3,4-dioxygenase (human)
# [8] = tested on: 3-keto-steroid reductase (human)
# [9] = tested on: 39S ribosomal protein L28, mitochondrial (human)
# [10] = tested on: 4-hydroxyphenylpyruvate dioxygenase (human)
# [11] = tested on: 40S ribosomal protein SA (human)
# 5 (human) = tested on: 5 (human)
# 6 (human) = tested on: 6 (human)
# [12] = tested on: 6-pyruvoyl tetrahydrobiopterin synthase (human)
# [13] = tested on: A-kinase anchor protein 14 (human)
# [14] = tested on: A.T hook DNA-binding motif-containing protein 1 (human)
# AAAS (human) = tested on: AAAS (human)
# AASDHPPT (human) = tested on: AASDHPPT (human)
# ABCF3 (human) = tested on: ABCF3 (human)
# ABHD10 (human) = tested on: ABHD10 (human)
sequence,measurement,setting,value
GGGAGGCTGAGGCAGG [G4-1 biotinylated (PQS2)],binding signal,[1],-0.314 z-score
same,binding signal,[2],-0.362 z-score
same,binding signal,[3],-0.32 z-score
same,binding signal,[4],-0.239 z-score
same,binding signal,[5],-0.375 z-score
same,binding signal,[6],-0.319 z-score
same,binding signal,[7],-0.355 z-score
same,binding signal,[8],-0.343 z-score
same,binding signal,[9],-0.304 z-score
same,binding signal,[10],-0.333 z-score
same,binding signal,[11],-0.355 z-score and -0.294 z-score
same,binding signal,5 (human),-0.338 z-score
same,binding signal,6 (human),-0.284 z-score
same,binding signal,[12],-0.34 z-score
same,binding signal,[13],-0.347 z-score
same,binding signal,[14],-0.344 z-score
same,binding signal,AAAS (human),-0.298 z-score
same,binding signal,AASDHPPT (human),-0.333 z-score
same,binding signal,ABCF3 (human),-0.279 z-score
same,binding signal,ABHD10 (human),-0.308 z-score

# Reprinted from the listing (2 entries):
sequence,measurement,setting,value
GGGAGGCTGAGGCAGG [G4-1 biotinylated (PQS2)],binding signal,6 (human),-0.284 z-score
same,binding signal,[12],-0.34 z-score
